Assay results: the supplement of paper PMC10849652
The other results are listed elsewhere or left out.

Chains of the proteins cited; added tags and fusions are not shown. Lines headed by an entry give the natural chain unless they say otherwise; changes in a name come on top.
UniProt O75347: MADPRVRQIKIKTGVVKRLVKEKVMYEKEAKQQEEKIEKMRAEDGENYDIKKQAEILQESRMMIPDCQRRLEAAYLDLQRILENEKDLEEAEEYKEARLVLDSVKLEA
UniProt Q9H5Q4: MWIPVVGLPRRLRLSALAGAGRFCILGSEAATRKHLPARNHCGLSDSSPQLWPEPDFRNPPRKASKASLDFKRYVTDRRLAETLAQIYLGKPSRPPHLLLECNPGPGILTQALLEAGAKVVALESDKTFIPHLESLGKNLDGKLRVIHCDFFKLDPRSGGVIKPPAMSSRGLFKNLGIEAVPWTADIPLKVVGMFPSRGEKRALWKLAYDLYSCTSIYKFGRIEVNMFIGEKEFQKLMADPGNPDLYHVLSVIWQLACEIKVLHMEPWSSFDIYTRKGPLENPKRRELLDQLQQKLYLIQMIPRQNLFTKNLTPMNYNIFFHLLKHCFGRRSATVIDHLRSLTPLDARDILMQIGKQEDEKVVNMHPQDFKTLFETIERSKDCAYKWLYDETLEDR
UniProt Q9UPU7: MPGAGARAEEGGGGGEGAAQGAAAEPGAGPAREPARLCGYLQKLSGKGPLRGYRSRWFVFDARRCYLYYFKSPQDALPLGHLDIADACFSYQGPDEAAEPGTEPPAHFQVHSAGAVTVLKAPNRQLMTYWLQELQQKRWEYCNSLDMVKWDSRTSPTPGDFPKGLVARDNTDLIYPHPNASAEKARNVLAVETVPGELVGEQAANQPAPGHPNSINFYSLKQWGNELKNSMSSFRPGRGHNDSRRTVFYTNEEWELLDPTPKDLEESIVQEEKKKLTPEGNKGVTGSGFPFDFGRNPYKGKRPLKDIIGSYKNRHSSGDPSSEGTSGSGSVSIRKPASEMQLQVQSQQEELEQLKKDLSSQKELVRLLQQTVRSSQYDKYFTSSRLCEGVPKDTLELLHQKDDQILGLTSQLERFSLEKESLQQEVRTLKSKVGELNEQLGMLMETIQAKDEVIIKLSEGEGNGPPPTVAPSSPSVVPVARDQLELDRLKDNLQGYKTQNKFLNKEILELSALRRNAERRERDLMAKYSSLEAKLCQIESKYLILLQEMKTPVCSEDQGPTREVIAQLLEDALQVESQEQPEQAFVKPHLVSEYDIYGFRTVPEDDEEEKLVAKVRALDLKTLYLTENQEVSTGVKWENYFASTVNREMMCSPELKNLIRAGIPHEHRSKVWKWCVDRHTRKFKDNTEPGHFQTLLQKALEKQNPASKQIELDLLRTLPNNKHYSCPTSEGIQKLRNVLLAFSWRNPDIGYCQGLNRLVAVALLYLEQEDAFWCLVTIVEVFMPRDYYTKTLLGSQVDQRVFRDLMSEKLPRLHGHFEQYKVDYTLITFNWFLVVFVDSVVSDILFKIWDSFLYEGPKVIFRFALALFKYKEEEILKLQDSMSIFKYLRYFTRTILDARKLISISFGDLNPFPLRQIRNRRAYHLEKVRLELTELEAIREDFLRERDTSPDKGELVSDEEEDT
UniProt Q16594, whole entry, looked up: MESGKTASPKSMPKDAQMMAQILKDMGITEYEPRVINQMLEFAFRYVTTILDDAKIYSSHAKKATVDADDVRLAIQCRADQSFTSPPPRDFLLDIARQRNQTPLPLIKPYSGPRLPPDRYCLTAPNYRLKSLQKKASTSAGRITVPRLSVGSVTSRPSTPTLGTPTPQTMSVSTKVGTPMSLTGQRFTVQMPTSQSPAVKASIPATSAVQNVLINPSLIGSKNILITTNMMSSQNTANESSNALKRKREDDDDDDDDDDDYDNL
UniProt Q86VP1, whole entry, looked up: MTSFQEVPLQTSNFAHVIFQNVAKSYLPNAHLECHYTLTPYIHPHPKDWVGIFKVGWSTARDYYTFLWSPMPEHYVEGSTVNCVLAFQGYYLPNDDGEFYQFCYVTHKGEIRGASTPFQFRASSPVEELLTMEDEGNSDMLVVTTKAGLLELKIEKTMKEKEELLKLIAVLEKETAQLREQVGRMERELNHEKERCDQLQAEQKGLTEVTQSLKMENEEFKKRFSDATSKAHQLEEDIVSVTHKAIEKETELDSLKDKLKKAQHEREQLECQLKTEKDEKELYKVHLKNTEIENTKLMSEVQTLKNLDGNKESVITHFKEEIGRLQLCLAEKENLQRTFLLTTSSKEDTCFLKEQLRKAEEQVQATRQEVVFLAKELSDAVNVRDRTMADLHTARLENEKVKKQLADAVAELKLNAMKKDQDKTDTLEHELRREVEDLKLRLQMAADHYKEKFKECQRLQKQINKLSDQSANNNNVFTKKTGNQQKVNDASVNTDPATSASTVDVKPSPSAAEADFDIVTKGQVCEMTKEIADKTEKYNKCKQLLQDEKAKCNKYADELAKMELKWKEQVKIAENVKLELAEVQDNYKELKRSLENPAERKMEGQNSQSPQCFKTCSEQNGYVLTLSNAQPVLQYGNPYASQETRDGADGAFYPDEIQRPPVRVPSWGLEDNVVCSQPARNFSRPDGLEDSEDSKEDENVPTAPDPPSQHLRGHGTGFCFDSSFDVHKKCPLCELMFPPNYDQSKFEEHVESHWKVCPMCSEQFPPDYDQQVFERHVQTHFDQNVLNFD
UniProt P26639: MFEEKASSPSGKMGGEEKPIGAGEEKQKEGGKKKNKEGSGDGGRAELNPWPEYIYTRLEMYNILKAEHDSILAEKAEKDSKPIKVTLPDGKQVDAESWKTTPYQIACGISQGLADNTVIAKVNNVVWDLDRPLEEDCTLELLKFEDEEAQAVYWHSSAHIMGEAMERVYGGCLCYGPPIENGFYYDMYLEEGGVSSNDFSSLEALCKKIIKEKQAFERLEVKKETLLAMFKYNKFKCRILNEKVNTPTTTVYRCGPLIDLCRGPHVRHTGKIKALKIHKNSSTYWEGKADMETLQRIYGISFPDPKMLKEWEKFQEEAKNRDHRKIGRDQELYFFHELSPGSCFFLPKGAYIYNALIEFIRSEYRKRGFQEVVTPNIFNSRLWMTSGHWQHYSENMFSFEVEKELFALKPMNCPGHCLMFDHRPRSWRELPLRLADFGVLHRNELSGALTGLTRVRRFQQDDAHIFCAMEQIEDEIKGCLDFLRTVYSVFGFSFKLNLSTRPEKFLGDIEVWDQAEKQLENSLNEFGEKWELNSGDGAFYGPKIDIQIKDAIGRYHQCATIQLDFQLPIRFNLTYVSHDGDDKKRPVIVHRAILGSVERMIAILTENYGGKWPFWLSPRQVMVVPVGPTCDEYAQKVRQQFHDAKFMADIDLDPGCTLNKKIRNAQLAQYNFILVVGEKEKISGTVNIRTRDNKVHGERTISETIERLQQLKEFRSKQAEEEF
UniProt O60347: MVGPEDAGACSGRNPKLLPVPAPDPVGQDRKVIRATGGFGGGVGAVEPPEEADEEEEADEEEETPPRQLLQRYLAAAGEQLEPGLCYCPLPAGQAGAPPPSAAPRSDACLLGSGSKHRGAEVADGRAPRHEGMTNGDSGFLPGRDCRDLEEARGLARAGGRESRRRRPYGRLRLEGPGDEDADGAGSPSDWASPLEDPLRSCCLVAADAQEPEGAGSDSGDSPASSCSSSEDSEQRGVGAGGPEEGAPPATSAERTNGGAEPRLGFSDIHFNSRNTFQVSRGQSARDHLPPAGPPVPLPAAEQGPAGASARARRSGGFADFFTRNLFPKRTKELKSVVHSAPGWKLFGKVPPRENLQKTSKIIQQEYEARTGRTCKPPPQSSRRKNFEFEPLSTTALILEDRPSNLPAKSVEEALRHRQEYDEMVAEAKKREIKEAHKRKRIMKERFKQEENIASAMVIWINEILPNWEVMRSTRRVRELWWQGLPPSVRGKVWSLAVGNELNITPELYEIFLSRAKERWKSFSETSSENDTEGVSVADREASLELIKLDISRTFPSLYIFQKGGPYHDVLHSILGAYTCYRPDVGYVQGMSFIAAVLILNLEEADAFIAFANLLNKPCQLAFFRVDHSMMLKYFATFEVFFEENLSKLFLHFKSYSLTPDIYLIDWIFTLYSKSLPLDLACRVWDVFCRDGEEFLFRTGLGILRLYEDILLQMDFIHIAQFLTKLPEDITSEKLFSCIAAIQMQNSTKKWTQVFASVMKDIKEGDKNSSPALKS
UniProt Q01664: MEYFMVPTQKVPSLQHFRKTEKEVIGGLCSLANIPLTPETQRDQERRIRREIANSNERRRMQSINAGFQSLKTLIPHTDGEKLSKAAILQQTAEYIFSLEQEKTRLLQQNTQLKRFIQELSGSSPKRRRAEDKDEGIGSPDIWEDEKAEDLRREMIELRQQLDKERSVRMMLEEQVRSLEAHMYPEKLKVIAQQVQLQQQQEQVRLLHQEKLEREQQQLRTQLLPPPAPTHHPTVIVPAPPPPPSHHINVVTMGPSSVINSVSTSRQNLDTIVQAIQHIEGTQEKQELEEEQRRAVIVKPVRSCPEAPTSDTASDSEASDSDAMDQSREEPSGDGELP
UniProt Q9P0N9: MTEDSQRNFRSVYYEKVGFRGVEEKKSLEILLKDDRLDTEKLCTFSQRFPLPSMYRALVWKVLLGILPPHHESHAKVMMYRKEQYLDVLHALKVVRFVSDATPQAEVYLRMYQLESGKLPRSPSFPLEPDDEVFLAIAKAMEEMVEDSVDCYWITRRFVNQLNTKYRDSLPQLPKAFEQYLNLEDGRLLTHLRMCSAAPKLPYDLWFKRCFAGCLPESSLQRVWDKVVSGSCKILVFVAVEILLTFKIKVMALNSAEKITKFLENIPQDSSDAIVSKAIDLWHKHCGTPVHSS
UniProt Q9Y4C2: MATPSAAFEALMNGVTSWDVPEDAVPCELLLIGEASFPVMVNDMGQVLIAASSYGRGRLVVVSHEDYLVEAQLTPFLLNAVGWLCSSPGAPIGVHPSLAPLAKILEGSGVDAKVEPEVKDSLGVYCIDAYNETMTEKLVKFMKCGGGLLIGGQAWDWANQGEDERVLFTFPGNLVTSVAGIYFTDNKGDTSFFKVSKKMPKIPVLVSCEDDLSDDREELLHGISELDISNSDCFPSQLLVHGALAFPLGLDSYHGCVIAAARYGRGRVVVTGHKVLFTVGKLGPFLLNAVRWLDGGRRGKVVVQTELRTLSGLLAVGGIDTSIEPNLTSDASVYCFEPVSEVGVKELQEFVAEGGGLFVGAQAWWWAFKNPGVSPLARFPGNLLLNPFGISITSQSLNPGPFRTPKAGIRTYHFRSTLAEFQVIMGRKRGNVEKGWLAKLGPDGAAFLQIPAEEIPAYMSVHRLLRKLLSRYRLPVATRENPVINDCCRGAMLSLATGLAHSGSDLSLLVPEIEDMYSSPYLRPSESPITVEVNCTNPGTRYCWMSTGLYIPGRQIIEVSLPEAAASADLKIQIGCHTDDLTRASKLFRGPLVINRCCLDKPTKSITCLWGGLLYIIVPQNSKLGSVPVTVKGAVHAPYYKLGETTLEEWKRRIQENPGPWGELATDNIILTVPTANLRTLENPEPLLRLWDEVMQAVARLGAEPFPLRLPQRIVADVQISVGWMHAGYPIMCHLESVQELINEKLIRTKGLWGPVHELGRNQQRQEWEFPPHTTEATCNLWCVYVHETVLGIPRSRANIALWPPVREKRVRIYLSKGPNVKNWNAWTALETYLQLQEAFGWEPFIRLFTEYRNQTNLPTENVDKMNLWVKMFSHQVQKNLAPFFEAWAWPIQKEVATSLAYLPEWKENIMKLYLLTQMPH
UniProt Q8TC07: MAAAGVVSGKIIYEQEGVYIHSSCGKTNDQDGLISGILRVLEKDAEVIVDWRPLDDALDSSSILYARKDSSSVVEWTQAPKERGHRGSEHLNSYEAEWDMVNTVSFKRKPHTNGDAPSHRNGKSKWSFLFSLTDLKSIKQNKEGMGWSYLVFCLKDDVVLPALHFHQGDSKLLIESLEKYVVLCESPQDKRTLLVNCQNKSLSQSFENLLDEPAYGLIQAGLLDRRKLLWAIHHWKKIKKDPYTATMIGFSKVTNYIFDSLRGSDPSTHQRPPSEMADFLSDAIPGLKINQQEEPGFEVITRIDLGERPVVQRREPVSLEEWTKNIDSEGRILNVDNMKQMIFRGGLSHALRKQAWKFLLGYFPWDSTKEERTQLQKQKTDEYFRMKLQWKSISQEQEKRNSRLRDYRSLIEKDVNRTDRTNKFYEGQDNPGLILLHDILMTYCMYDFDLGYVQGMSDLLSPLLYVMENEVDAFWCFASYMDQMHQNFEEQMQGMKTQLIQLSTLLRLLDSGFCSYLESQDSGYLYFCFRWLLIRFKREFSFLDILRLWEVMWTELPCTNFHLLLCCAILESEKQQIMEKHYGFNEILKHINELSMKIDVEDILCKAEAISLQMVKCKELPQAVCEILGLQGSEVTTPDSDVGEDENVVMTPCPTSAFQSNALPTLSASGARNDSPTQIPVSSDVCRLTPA
UniProt Q9Y6I9: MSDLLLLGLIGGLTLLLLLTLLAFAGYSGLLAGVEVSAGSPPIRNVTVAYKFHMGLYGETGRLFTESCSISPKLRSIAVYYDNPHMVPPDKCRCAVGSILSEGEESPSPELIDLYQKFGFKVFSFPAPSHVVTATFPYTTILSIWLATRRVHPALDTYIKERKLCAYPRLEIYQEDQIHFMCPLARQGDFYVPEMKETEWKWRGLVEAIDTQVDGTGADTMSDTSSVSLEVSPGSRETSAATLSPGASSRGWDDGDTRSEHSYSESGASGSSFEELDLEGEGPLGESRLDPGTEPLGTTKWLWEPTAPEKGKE

Compound: c1cn2cc(-c3ccc4cn[nH]c4c3)nc(Nc3ccc(N4CCOCC4)cc3)c2n1 [entospletinib]
Experiment: log2 fold change, soluble protein after heating vs DMSO (PISA); higher = thermal stabilisation; K562 lysate, 10 uM; active = over 0.2 and 3.5 SD of the protein, either way, in both replicates (recomputed)
In short: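 Thermal stability, expressed as log-two fold change relative to solvent controls, is given from duplicates. Crude K562 extract in PBS pH 7.4 with 1 mM MgCl2, at 1 mg/mL protein, was treated with 10 μM compound for 30 min and heated in aliquots for 3 min across 48°C-58°C. After pooling, adjustment to 0.5% NP-40 at 4°C and centrifugation at 21,000xg for 90 min, supernatant protein was measured by TMTpro 16plex LC-MS/MS with channel sums equalised.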

log2 fold change, inactive:
TBC1D10B (UniProt Q4KMP7) 0.045
TBL2 (UniProt Q9Y4P3) 0.02
TBCA (UniProt O75347) 0.006
TCEA1 (UniProt P23193) 0.02
TBCC (UniProt Q15814) 0.007
TFB2M (UniProt Q9H5Q4) 0
TBC1D8B (UniProt Q0IIM8) 0.131
TBC1D2B (UniProt Q9UPU7) -0.061
TCOF1 isoform 4 (UniProt Q13428) 0.002
TAF9 (UniProt Q16594) -0.017
TAX1BP1 (UniProt Q86VP1) 0.073
TARS1 (UniProt P26639) 0.013
TBL1X (UniProt O60907) -0.024
TBL1XR1 (UniProt Q9BZK7) -0.025
TAF9B (UniProt Q9HBM6) 0.101
TEX2 isoform 2 (UniProt Q8IWB9) 0.016
TBC1D12 (UniProt O60347) -0.102
TFAP4 (UniProt Q01664) -0.086
TCERG1 (UniProt O14776) 0.008
TFB1M (UniProt Q8WVM0) 0.049
TDP1 (UniProt Q9NUW8) 0.047
TBC1D13 (UniProt Q9NVG8) 0.014
TARBP1 (UniProt Q13395) 0.028
TBC1D7 (UniProt Q9P0N9) -0.131
TFIP11 (UniProt Q9UBB9) 0.067
TFAM (UniProt Q00059) 0.015
TCAF1 (UniProt Q9Y4C2) 0.036
TBC1D15 isoform 3 (UniProt Q8TC07) 0.018
TAF8 isoform 2 (UniProt Q7Z7C8) -0.063
TCF25 (UniProt Q9BQ70) -0.048
TCAF2 (UniProt A6NFQ2) -0.01
TEX264 (UniProt Q9Y6I9) 0.324
TELO2 (UniProt Q9Y4R8) 0.011

Not a retest: entries from further up.
log2 fold change, inactive:
TCOF1 isoform 4 (UniProt Q13428) 0.002
TAF9 (UniProt Q16594) -0.017
